# Measured values reported in the supplement of paper PMC8728848.
# Some of the results follow.
# B1: SAOUHSC 02783 (Staphylococcus aureus), Q5HD69 (protein)
# chain: MIHSKKLTLGICLVLLIILIVGYVIMTKTNGRNAQIKDTFNQTLKLYPTKNLDDFYDKEGFRDQEFKKGDKGTWIVNSEMVIEPKGKDMETRGMVLYINRNTRTTKGYYFISEMTDDSNGRPKDDEKRYPVKMEHNKIIPTKPLPNDKLKKEIENFKFFVQYGNFKDINDYKDGDISYNPNVPSYSAKYQLNNDDYNVQQLRKRYDIPTKQAPKLLLKGDGDLKGSSVGSRSLEFTFVENKEENIYFTDSVQYTPSEDTRYESN
# How the values were obtained:
# Assay in all cases: glycan array binding signal (z-score within array); higher = stronger binding
# Settings in all cases: glycan notation: IUPAC condensed, linker removed
# [1] = biological target: Neu5Ac(a2-6)Gal(b1-3)GlcNAc(b1-3)[Gal(b1-4)GlcNAc(b1-6)]Gal(b1-4)Glc
# Outline: (§1)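 Glycan array data came from 3228 arrays in the Consortium for Functional Glycomics database, and only arrays with an available protein sequence were kept. Glycan names were put into IUPAC-condensed notation, and columns mapping to the same glycan were averaged. The binding signal is a within-array Z-score, averaged across arrays of one protein sequence run at different concentrations or buffers and across linkers. A negative Z-score can be read as non-binding.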
# Neu5Ac(a2-6)Gal(b1-4)Glc = biological target: Neu5Ac(a2-6)Gal(b1-4)Glc
# Outline: as §1
# [2] = biological target: Neu5Ac(a2-6)Gal(b1-4)GlcNAc
# Outline: as §1
# [3] = biological target: Neu5Ac(a2-6)Gal(b1-4)GlcNAc(b1-2)Man
# Outline: as §1
# [4] = biological target: Neu5Ac(a2-6)Gal(b1-4)GlcNAc(b1-2)Man(a1-3)Man(b1-4)GlcNAc(b1-4)GlcNAc
# Outline: as §1
# [5] = biological target: Neu5Ac(a2-6)Gal(b1-4)GlcNAc(b1-2)Man(a1-3)[Gal(b1-4)GlcNAc(b1-2)Man(a1-6)]Man(b1-4)GlcNAc(b1-4)GlcNAc
# Outline: as §1
# [6] = biological target: Neu5Ac(a2-6)Gal(b1-4)GlcNAc(b1-2)Man(a1-3)[GlcNAc(b1-2)Man(a1-6)]Man(b1-4)GlcNAc(b1-4)GlcNAc
# Outline: as §1
# [7] = biological target: Neu5Ac(a2-6)Gal(b1-4)GlcNAc(b1-2)Man(a1-3)[GlcNAc(b1-4)][Neu5Ac(a2-6)Gal(b1-4)GlcNAc(b1-2)Man(a1-6)]Man(b1-4)GlcNAc(b1-4)GlcNAc
# Outline: as §1
# [8] = biological target: Neu5Ac(a2-6)Gal(b1-4)GlcNAc(b1-2)Man(a1-3)[Man(a1-6)]Man(b1-4)GlcNAc(b1-4)GlcNAc
# Outline: as §1
# [9] = biological target: Neu5Ac(a2-6)Gal(b1-4)GlcNAc(b1-2)Man(a1-3)[Neu5Ac(a2-3)Gal(b1-4)GlcNAc(b1-2)Man(a1-6)]Man(b1-4)GlcNAc(b1-4)GlcNAc
# Outline: as §1
# [10] = biological target: Neu5Ac(a2-6)Gal(b1-4)GlcNAc(b1-2)Man(a1-3)[Neu5Ac(a2-6)Gal(b1-4)GlcNAc(b1-2)Man(a1-6)]Man(b1-4)GlcNAc(b1-4)GlcNAc
# Outline: as §1
# [11] = biological target: Neu5Ac(a2-6)Gal(b1-4)GlcNAc(b1-2)Man(a1-3)[Neu5Ac(a2-6)Gal(b1-4)GlcNAc(b1-2)Man(a1-6)]Man(b1-4)GlcNAc(b1-4)[Fuc(a1-6)]GlcNAc
# Outline: as §1
# [12] = biological target: Neu5Ac(a2-6)Gal(b1-4)GlcNAc(b1-2)Man(a1-6)Man(b1-4)GlcNAc(b1-4)GlcNAc
# Outline: as §1
# [13] = biological target: Neu5Ac(a2-6)Gal(b1-4)GlcNAc(b1-2)Man(a1-6)[Gal(b1-4)GlcNAc(b1-2)Man(a1-3)]Man(b1-4)GlcNAc(b1-4)GlcNAc
# Outline: as §1
# [14] = biological target: Neu5Ac(a2-6)Gal(b1-4)GlcNAc(b1-2)Man(a1-6)[GlcNAc(b1-2)Man(a1-3)]Man(b1-4)GlcNAc(b1-4)GlcNAc
# Outline: as §1
# [15] = biological target: Neu5Ac(a2-6)Gal(b1-4)GlcNAc(b1-2)Man(a1-6)[Man(a1-3)]Man(b1-4)GlcNAc(b1-4)GlcNAc
# Outline: as §1
# [16] = biological target: Neu5Ac(a2-6)Gal(b1-4)GlcNAc(b1-2)[Neu5Ac(a2-6)Gal(b1-4)GlcNAc(b1-4)]Man(a1-3)[GlcNAc(b1-4)][Neu5Ac(a2-6)Gal(b1-4)GlcNAc(b1-2)[Neu5Ac(a2-6)Gal(b1-4)GlcNAc(b1-6)]Man(a1-6)]Man(b1-4)GlcNAc(b1-4)GlcNAc
# Outline: as §1
# [17] = biological target: Neu5Ac(a2-6)Gal(b1-4)GlcNAc(b1-2)[Neu5Ac(a2-6)Gal(b1-4)GlcNAc(b1-4)]Man(a1-3)[GlcNAc(b1-4)][Neu5Ac(a2-6)Gal(b1-4)GlcNAc(b1-4)Man(a1-6)]Man(b1-4)GlcNAc(b1-4)GlcNAc
# Outline: as §1
# [18] = biological target: Neu5Ac(a2-6)Gal(b1-4)GlcNAc(b1-2)[Neu5Ac(a2-6)Gal(b1-4)GlcNAc(b1-6)]Man(a1-6)[Neu5Ac(a2-6)Gal(b1-4)GlcNAc(b1-2)Man(a1-3)][GlcNAc(b1-4)]Man(b1-4)GlcNAc(b1-4)GlcNAc
# Outline: as §1
# [19] = biological target: Neu5Ac(a2-6)Gal(b1-4)GlcNAc(b1-3)Gal(b1-3)GlcNAc
# Outline: as §1
# [20] = biological target: Neu5Ac(a2-6)Gal(b1-4)GlcNAc(b1-3)Gal(b1-4)GlcNAc
# Outline: as §1
# [21] = biological target: Neu5Ac(a2-6)Gal(b1-4)GlcNAc(b1-3)Gal(b1-4)GlcNAc(b1-2)Man(a1-3)[Neu5Ac(a2-6)Gal(b1-4)GlcNAc(b1-3)Gal(b1-4)GlcNAc(b1-2)Man(a1-6)]GalNAc
# Outline: as §1
# [22] = biological target: Neu5Ac(a2-6)Gal(b1-4)GlcNAc(b1-3)Gal(b1-4)GlcNAc(b1-3)Gal(b1-4)GlcNAc
# Outline: as §1
# [23] = biological target: Neu5Ac(a2-6)Gal(b1-4)GlcNAc(b1-3)Gal(b1-4)GlcNAc(b1-3)Gal(b1-4)GlcNAc(b1-2)Man(a1-3)[Neu5Ac(a2-6)Gal(b1-4)GlcNAc(b1-3)Gal(b1-4)GlcNAc(b1-3)Gal(b1-4)GlcNAc(b1-2)Man(a1-6)]GalNAc
# Outline: as §1
# [24] = biological target: Neu5Ac(a2-6)Gal(b1-4)GlcNAc(b1-3)Gal(b1-4)GlcNAc(b1-3)GalNAc
# Outline: as §1
# [25] = biological target: Neu5Ac(a2-6)Gal(b1-4)GlcNAc(b1-3)Gal(b1-4)GlcNAc(b1-3)[Neu5Ac(a2-6)Gal(b1-4)GlcNAc(b1-3)Gal(b1-4)GlcNAc(b1-6)]GalNAc
# Outline: as §1
# [26] = biological target: Neu5Ac(a2-6)Gal(b1-4)GlcNAc(b1-3)Gal(b1-4)GlcNAc(b1-6)[Gal(b1-3)]GalNAc
# Outline: as §1
# [27] = biological target: Neu5Ac(a2-6)Gal(b1-4)GlcNAc(b1-3)Gal(b1-4)[Fuc(a1-3)]GlcNAc(b1-3)Gal(b1-4)[Fuc(a1-3)]GlcNAc
# Outline: as §1
# [28] = biological target: Neu5Ac(a2-6)Gal(b1-4)GlcNAc(b1-3)GalNAc
# Outline: as §1
# [29] = biological target: Neu5Ac(a2-6)Gal(b1-4)GlcNAc(b1-3)[Neu5Ac(a2-6)Gal(b1-4)GlcNAc(b1-6)]GalNAc
# Outline: as §1
# [30] = biological target: Neu5Ac(a2-6)Gal(b1-4)GlcNAc(b1-6)GalNAc
# Outline: as §1
# [31] = biological target: Neu5Ac(a2-6)Gal(b1-4)GlcNAc(b1-6)[Gal(b1-3)GlcNAc(b1-3)]Gal(b1-4)Glc
# Outline: as §1
# [32] = biological target: Neu5Ac(a2-6)Gal(b1-4)GlcNAc(b1-6)[Gal(b1-3)]GalNAc
# Outline: as §1
# [33] = biological target: Neu5Ac(a2-6)Gal(b1-4)GlcNAc6S
# Outline: as §1
# Neu5Ac(a2-6)GalNAc = biological target: Neu5Ac(a2-6)GalNAc
# Outline: as §1
# [34] = biological target: Neu5Ac(a2-6)GalNAc(b1-4)GlcNAc
# Outline: as §1
# [35] = biological target: Neu5Ac(a2-6)GalNAc(b1-4)GlcNAc6S
# Outline: as §1
# [36] = biological target: Neu5Ac(a2-6)GlcNAc(b1-4)GlcNAc
# Outline: as §1
binder,measurement,setting,value
B1,glycan array binding signal (z-score),[1],0.156
same,glycan array binding signal (z-score),Neu5Ac(a2-6)Gal(b1-4)Glc,0.228
same,glycan array binding signal (z-score),[2],-0.274
same,glycan array binding signal (z-score),[3],2.55
same,glycan array binding signal (z-score),[4],0.71
same,glycan array binding signal (z-score),[5],0.154
same,glycan array binding signal (z-score),[6],-0.396
same,glycan array binding signal (z-score),[7],0.127
same,glycan array binding signal (z-score),[8],0.298
same,glycan array binding signal (z-score),[9],1.38
same,glycan array binding signal (z-score),[10],0.526
same,glycan array binding signal (z-score),[11],2.81
same,glycan array binding signal (z-score),[12],0.444
same,glycan array binding signal (z-score),[13],-1.57
same,glycan array binding signal (z-score),[14],-0.644
same,glycan array binding signal (z-score),[15],2.58
same,glycan array binding signal (z-score),[16],-0.219
same,glycan array binding signal (z-score),[17],0.093
same,glycan array binding signal (z-score),[18],-0.756
same,glycan array binding signal (z-score),[19],-0.235
same,glycan array binding signal (z-score),[20],-0.066
same,glycan array binding signal (z-score),[21],-0.25
same,glycan array binding signal (z-score),[22],-0.045
same,glycan array binding signal (z-score),[23],2.33
same,glycan array binding signal (z-score),[24],-0.757
same,glycan array binding signal (z-score),[25],1.43
same,glycan array binding signal (z-score),[26],-0.472
same,glycan array binding signal (z-score),[27],0.316
same,glycan array binding signal (z-score),[28],-0.087
same,glycan array binding signal (z-score),[29],-0.21
same,glycan array binding signal (z-score),[30],0.327
same,glycan array binding signal (z-score),[31],0.4
same,glycan array binding signal (z-score),[32],1.36
same,glycan array binding signal (z-score),[33],1.94
same,glycan array binding signal (z-score),Neu5Ac(a2-6)GalNAc,-0.602
same,glycan array binding signal (z-score),[34],-1.67
same,glycan array binding signal (z-score),[35],-0.378
same,glycan array binding signal (z-score),[36],1.36

# Part of the list above, with tabs.
binder	measurement	setting	value
B1	glycan array binding signal (z-score)	[9]	1.38
same	glycan array binding signal (z-score)	[10]	0.526
